PubChem BioAssay AID1508588 – Peter MacCallum Cancer Centre, 2020
In all, the deposit lists about 18,000 reagents; shown is an unselected part. 790 of all reagents (4.4%) count as active. 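Calls rest on a combination of fold-change classes in drug and vehicle arms, not all shown here.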

Aim: 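Which gene losses make BRAF-mutant melanoma cells more responsive to vemurafenib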 (primary screen)
Cell system: human WM266.4 melanoma cells (BRAF V600 mutant)
Reagent: siRNA pool against human genes, 40 nM
Timing: 96 h from transfection to read-out
Treatment: vemurafenib 300 nM (about IC25), added 48 h after transfection, for 48 h; comparison arm got DMSO vehicle only
Measured: 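Ratios to non-targeting siRNA for cell gain, counted as DAPI nuclei after minus before drug and averaged over two replicates, and for absorbance-read medium lactate per cell; both binned into fold-change classes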
Scale: cell gain with vemurafenib: higher = more cell gain than with non-targeting siRNA; lactate per cell with vemurafenib: higher = more lactate made per cell
Call rule: 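Enhancement is called by pairing each knock-down's vehicle-arm and drug-arm fold-change classes for viability or glycolysis; which class combinations qualify is not given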
Meaning of the calls: active = enhances vemurafenib effect; inactive = no enhancement seen

gene knocked down | cell gain with vemurafenib | lactate per cell with vemurafenib | outcome
SMPX (small muscle protein X-linked) | 0.66 | 0.8 | inactive
DEFB107A (defensin beta 107A) | 0.7 | 0.62 | inactive
PIH1D1 (PIH1 domain containing 1) | 0.58 | 0.88 | inactive
TRPV5 | 0.51 | 0.56 | inactive
ADAM32 (ADAM metallopeptidase domain 32) | 0.91 | 0.98 | inactive
SSTR3 (somatostatin receptor 3) | 0.45 | 2.8 | inactive
RNF181 (ring finger protein 181) | 1.22 | 0.57 | inactive
CLTA (clathrin light chain A) | 0.13 | 1.21 | inactive
DCSTAMP (dendrocyte expressed seven transmembrane protein) | 0.54 | 0.32 | inactive
MOV10L1 (Mov10 like RNA helicase 1) | 0.2 | 1.77 | inactive
PANK2 (pantothenate kinase 2) | 0.75 | 0.85 | inactive
AMPD1 (adenosine monophosphate deaminase 1) | 1.28 | 0.86 | inactive
PMS2 (PMS1 homolog 2, mismatch repair system component) | 0.93 | 0.94 | inactive
PECAM1 (platelet and endothelial cell adhesion molecule 1) | 0.31 | 0.8 | inactive
ANKRD24 (ankyrin repeat domain 24) | 1.23 | 0.72 | inactive
CASP8 (caspase 8) | 1.43 | 0.62 | inactive
MDM4 (MDM4 regulator of p53) | 0.66 | 0.42 | inactive
ZNF44 (zinc finger protein 44) | 1.01 | 0.54 | inactive
HMGB4 (high mobility group box 4) | 0.74 | 0.67 | inactive
NDUFS2 (NADH:ubiquinone oxidoreductase core subunit S2) | 0.44 | 0.67 | inactive
CIP2A (cellular inhibitor of PP2A) | 0.67 | 1.07 | inactive
EPHX4 (epoxide hydrolase 4) | 0.69 | 0.78 | inactive
GON4L (gon-4 like) | -0.01 | 1.46 | inactive
PSMD10 (proteasome 26S subunit, non-ATPase 10) | 0.42 | 0.64 | inactive
SLC25A33 | 0.9 | 0.52 | inactive
PALM (paralemmin) | 0.94 | 1 | inactive
PLXND1 (plexin D1) | 0.44 | 0.9 | inactive
PDE8B (phosphodiesterase 8B) | 0.57 | 1.79 | inactive
AXIN2 (axin 2) | 0.8 | 0.22 | inactive
BCAP29 (B cell receptor associated protein 29) | 0.39 | 1.14 | inactive
FAM174B (family with sequence similarity 174 member B) | 0.43 | 0.97 | inactive
NUP42 (nucleoporin 42) | 0.48 | 1.09 | inactive
FIP1L1 (factor interacting with PAPOLA and CPSF1) | 0.22 | 1.43 | inactive
POLR2K (RNA polymerase II, I and III subunit K) | 0.64 | 0.65 | inactive
KL (klotho) | 0.92 | 0.7 | active
MLLT11 (MLLT11 transcription factor 7 cofactor) | 0.98 | 1.1 | inactive
OLIG1 (oligodendrocyte transcription factor 1) | 0.17 | 2.23 | inactive
RDH8 (retinol dehydrogenase 8) | 0.92 | 1.57 | inactive
PARP12 (poly(ADP-ribose) polymerase family member 12) | 0.47 | 0.5 | inactive
CCDC191 (coiled-coil domain containing 191) | 0.69 | 1.19 | inactive
PLEKHM1P1 | 0.21 | 2.13 | inactive
TRABD (TraB domain containing) | 1.18 | 0.68 | inactive
OR5B3 (olfactory receptor family 5 subfamily B member 3) | 0.24 | 0.56 | inactive
PSMB7 (proteasome 20S subunit beta 7) | 0.1 | 2.46 | inactive
HEXIM1 (HEXIM P-TEFb complex subunit 1) | 0.59 | 0.98 | inactive
SPG21 (SPG21 abhydrolase domain containing, maspardin) | 0.43 | 1.56 | inactive
HEATR3 (HEAT repeat containing 3) | 0.59 | 0.48 | inactive
OR1L1 (olfactory receptor family 1 subfamily L member 1) | 0.6 | 0.38 | inactive
TMEM88 (transmembrane protein 88) | 1.08 | 0.64 | inactive
SOX8 (SRY-box transcription factor 8) | 0.69 | 0.72 | inactive
PRR16 (proline rich 16) | 0.46 | 0.98 | inactive
TTC6 (tetratricopeptide repeat domain 6) | 0.82 | 1.08 | inactive
SLC29A2 | 0.35 | 0.9 | inactive
CT45A6 (cancer/testis antigen family 45 member A6) | 0.65 | 0.56 | inactive
PSAPL1 (prosaposin like 1) | 1.1 | 0.85 | inactive
SEPTIN14 (septin 14) | 0.35 | 0.68 | active
RNLS (renalase, FAD dependent amine oxidase) | 1.17 | 1.21 | inactive
HSPA8 (heat shock protein family A (Hsp70) member 8) | 0.55 | 0.6 | inactive
SLC22A4 | 0.83 | 0.84 | inactive
MPV17 (mitochondrial inner membrane protein MPV17) | 0.34 | 0.4 | inactive
PI4K2B (phosphatidylinositol 4-kinase type 2 beta) | 0.64 | 1.19 | inactive
KRTAP9-3 (keratin associated protein 9-3) | 0.42 | 2 | inactive
IFNAR2 (interferon alpha and beta receptor subunit 2) | 0.92 | 0.64 | inactive
TIMP3 (TIMP metallopeptidase inhibitor 3) | 0.29 | 0.72 | inactive
TSPY3 (testis specific protein Y-linked 3) | 0.63 | 1.83 | inactive
KIR3DX1 | 0.6 | 0.86 | inactive
ZZEF1 (zinc finger ZZ-type and EF-hand domain containing 1) | 0.2 | 1.23 | inactive
RIPOR2 (RHO family interacting cell polarization regulator 2) | 0.31 | 0.84 | inactive
CLEC4E (C-type lectin domain family 4 member E) | 0.78 | 0.56 | inactive
SEMA5A (semaphorin 5A) | 0.21 | 1.4 | inactive
TINAGL1 (tubulointerstitial nephritis antigen like 1) | 0.9 | 0.71 | inactive
CSTB (cystatin B) | 0.3 | 1.46 | inactive
ADAM19 (ADAM metallopeptidase domain 19) | 0.86 | 0.5 | inactive
TRPM2 | 1.06 | 0.62 | inactive
DCLRE1B (DNA cross-link repair 1B) | 0.31 | 1.05 | inactive
MB21D2 (Mab-21 domain containing 2) | 0.7 | 0.74 | inactive
MPHOSPH10 (M-phase phosphoprotein 10) | 0.32 | 0.86 | inactive
CREG2 (cellular repressor of E1A stimulated genes 2) | 0.33 | 1.37 | inactive
PRKACB (protein kinase cAMP-activated catalytic subunit beta) | 0.52 | 1.52 | inactive
GLO1 (glyoxalase I) | 0.62 | 0.62 | inactive
ACLY (ATP citrate lyase) | 0.63 | 0.88 | inactive
DQX1 (DEAQ-box RNA dependent ATPase 1) | 0.6 | 0.56 | inactive
KCNN1 (potassium calcium-activated channel subfamily N member 1) | 0.69 | 0.78 | inactive
TCEA3 (transcription elongation factor A3) | 0.54 | 1.07 | inactive
